Values from PubChem BioAssay AID743121 (NCATS, 2013).

Purpose: 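Knock-downs that sensitise breast cancer cells to camptothecin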 (primary screen)
System: MDA-MB-231 cells, a human breast cancer line
Reagents: single siRNA against human genes, 20 nM siRNA (0.8 pmol per well)
Duration: 120 h (drug added 48 h after transfection, read 72 h later)
Treatment: camptothecin 20 nM (about EC30) for 72 h; vehicle 0.1% DMSO in parallel plates
Detection: 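CellTiter-Glo ATP signal, scaled to control siRNA as percent viability; sensitisation given as log2 of untreated divided by camptothecin-treated viability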
Direction: log2 vehicle/camptothecin viability: higher = stronger sensitisation to camptothecin
Active means: 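Active genes have an RSA gene-level p-value below 0.001, computed from the ratios of their separate siRNAs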
In all, the deposit lists about 26,000 reagents; below is a random part of them. 167 of all reagents (0.63%) were called active. 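Calls are per gene from RSA p-values that are not deposited; an individual active-marked siRNA can sensitise only weakly.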 The numbers tell different reagents against one gene apart. Further read-outs or replicates are left out here.

CFL2 #1
- log2 vehicle/camptothecin viability: -0.0281
- Outcome: inactive

CFL2 #2
- log2 vehicle/camptothecin viability: 0.067
- Outcome: inactive

CFL2 #3
- log2 vehicle/camptothecin viability: 0.102
- Outcome: inactive

CFL2 #4
- log2 vehicle/camptothecin viability: 0.147
- Outcome: inactive

PPARGC1A #1
- log2 vehicle/camptothecin viability: -0.275
- Outcome: inactive

PPARGC1A #2
- log2 vehicle/camptothecin viability: 0.136
- Outcome: inactive

PPARGC1A #3
- log2 vehicle/camptothecin viability: 0.154
- Outcome: inactive

CES4A #1
- log2 vehicle/camptothecin viability: -0.0879
- Outcome: inactive

CES4A #2
- log2 vehicle/camptothecin viability: -0.444
- Outcome: inactive

CES4A #3
- log2 vehicle/camptothecin viability: 0.173
- Outcome: inactive

ASPM #1
- log2 vehicle/camptothecin viability: -0.00962
- Outcome: inactive

ASPM #2
- log2 vehicle/camptothecin viability: -0.0679
- Outcome: inactive

ASPM #3
- log2 vehicle/camptothecin viability: -1.22
- Outcome: inactive

ASPM #4
- log2 vehicle/camptothecin viability: -0.371
- Outcome: inactive

CDC14A #1
- log2 vehicle/camptothecin viability: -0.347
- Outcome: inactive

CDC14A #2
- log2 vehicle/camptothecin viability: -0.252
- Outcome: inactive

CDC14A #3
- log2 vehicle/camptothecin viability: -0.0942
- Outcome: inactive

CDC14A #4
- log2 vehicle/camptothecin viability: -0.182
- Outcome: inactive

ACHE #1
- log2 vehicle/camptothecin viability: -0.634
- Outcome: inactive

ACHE #2
- log2 vehicle/camptothecin viability: -0.291
- Outcome: inactive

ACHE #3
- log2 vehicle/camptothecin viability: -0.0434
- Outcome: inactive

ACHE #4
- log2 vehicle/camptothecin viability: -0.168
- Outcome: inactive

CACNG8 #1
- log2 vehicle/camptothecin viability: -0.231
- Outcome: inactive

CACNG8 #2
- log2 vehicle/camptothecin viability: -0.469
- Outcome: inactive

CACNG8 #3
- log2 vehicle/camptothecin viability: -0.261
- Outcome: inactive

CACNG8 #4
- log2 vehicle/camptothecin viability: -0.169
- Outcome: inactive

ASIC3 #1
- log2 vehicle/camptothecin viability: -0.315
- Outcome: inactive

ASIC3 #2
- log2 vehicle/camptothecin viability: -0.169
- Outcome: inactive

ASIC3 #3
- log2 vehicle/camptothecin viability: 0.134
- Outcome: inactive

ASIC3 #4
- log2 vehicle/camptothecin viability: -0.592
- Outcome: inactive

ZNF606 #1
- log2 vehicle/camptothecin viability: -0.312
- Outcome: inactive

ZNF606 #2
- log2 vehicle/camptothecin viability: -0.0366
- Outcome: inactive

ZNF606 #3
- log2 vehicle/camptothecin viability: 0.211
- Outcome: inactive

ZNF606 #4
- log2 vehicle/camptothecin viability: -0.0208
- Outcome: inactive

LLGL1 #1
- log2 vehicle/camptothecin viability: 0.639
- Outcome: inactive

LLGL1 #2
- log2 vehicle/camptothecin viability: 0.295
- Outcome: inactive

LLGL1 #3
- log2 vehicle/camptothecin viability: 0.116
- Outcome: inactive

5 entries already listed, arranged by “log2 vehicle/camptothecin viability”, descending.
ASPM #1
- log2 vehicle/camptothecin viability: -0.00962
- Outcome: inactive

ASPM #2
- log2 vehicle/camptothecin viability: -0.0679
- Outcome: inactive

CDC14A #1
- log2 vehicle/camptothecin viability: -0.347
- Outcome: inactive

ASPM #4
- log2 vehicle/camptothecin viability: -0.371
- Outcome: inactive

ASPM #3
- log2 vehicle/camptothecin viability: -1.22
- Outcome: inactive
